# In the supplement of paper PMC10849652:
# Sequences of proteins named here, by UniProt entry; tags and fusion partners are left off. A change or cut given only in a name is not applied to a line headed by its entry.
# UniProt Q8TC05: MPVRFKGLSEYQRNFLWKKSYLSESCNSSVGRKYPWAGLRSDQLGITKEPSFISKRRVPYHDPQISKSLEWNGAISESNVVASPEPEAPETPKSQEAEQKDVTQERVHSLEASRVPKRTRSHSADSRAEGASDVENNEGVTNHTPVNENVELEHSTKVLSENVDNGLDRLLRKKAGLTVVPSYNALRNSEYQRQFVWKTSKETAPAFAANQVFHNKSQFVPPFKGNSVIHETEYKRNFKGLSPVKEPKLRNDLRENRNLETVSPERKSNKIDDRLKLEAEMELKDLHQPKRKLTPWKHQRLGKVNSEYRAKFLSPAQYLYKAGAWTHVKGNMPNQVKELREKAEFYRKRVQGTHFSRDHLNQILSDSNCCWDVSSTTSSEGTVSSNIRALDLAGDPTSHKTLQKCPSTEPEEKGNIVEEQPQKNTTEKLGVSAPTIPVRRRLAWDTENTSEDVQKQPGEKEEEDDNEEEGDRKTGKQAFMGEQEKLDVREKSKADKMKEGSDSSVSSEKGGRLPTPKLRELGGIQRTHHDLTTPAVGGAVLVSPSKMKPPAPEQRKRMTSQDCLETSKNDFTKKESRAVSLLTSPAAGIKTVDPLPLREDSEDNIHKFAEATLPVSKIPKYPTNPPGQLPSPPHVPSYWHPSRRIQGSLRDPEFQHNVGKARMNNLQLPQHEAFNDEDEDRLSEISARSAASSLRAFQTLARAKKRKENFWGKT
# UniProt Q14680: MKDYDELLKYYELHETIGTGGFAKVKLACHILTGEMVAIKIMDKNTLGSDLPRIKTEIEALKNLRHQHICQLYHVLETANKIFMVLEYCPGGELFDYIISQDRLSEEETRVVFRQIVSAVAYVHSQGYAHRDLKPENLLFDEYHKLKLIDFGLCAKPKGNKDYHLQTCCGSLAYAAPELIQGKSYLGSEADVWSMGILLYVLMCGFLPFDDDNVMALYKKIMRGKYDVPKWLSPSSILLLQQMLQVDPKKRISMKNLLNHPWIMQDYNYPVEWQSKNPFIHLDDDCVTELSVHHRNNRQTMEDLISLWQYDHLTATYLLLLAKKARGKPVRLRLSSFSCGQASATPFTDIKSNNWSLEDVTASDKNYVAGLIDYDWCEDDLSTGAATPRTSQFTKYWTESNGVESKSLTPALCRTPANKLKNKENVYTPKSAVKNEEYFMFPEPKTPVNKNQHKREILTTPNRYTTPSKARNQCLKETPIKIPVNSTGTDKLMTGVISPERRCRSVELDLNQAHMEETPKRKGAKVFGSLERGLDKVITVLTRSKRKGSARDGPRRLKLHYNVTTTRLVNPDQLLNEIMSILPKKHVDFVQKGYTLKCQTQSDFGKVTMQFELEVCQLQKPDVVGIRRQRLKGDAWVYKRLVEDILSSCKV
# MCTS2P, A0A3B3IRV3, UniProt A0A3B3IRV3, whole entry, looked up: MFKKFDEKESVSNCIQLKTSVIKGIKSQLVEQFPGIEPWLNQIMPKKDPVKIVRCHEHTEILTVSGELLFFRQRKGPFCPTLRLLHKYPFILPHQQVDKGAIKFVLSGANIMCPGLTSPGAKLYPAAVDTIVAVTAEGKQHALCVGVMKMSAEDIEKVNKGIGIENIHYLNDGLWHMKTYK
# UniProt Q96EZ8, whole entry, looked up: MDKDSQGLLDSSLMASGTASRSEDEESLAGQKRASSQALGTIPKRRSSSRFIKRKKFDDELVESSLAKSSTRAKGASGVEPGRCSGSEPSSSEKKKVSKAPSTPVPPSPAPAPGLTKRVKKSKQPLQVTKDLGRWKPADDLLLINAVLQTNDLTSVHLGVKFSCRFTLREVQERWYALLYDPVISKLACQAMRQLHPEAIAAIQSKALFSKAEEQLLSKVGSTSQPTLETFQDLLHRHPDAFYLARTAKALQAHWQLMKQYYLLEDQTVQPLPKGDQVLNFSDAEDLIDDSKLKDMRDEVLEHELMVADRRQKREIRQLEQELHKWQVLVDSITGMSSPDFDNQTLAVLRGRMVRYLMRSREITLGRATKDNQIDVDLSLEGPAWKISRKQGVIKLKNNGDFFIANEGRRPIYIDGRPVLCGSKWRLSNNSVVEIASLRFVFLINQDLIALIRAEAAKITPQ
# UniProt Q9H1U4: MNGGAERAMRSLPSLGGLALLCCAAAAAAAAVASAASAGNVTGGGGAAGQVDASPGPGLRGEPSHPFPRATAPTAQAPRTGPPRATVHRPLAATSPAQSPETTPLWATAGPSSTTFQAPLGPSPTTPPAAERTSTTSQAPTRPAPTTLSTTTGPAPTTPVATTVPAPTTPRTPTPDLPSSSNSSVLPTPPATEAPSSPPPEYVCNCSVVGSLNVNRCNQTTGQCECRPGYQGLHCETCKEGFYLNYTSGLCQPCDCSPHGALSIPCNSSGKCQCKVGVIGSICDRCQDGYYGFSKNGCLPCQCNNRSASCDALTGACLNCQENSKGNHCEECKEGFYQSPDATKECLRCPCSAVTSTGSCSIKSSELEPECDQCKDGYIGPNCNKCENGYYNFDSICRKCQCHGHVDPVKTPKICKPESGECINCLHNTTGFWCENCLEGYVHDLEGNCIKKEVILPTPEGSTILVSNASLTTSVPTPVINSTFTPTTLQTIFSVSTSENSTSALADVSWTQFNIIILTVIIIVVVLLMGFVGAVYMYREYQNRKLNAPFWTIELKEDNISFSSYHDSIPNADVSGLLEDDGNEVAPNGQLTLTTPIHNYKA
# UniProt P55083: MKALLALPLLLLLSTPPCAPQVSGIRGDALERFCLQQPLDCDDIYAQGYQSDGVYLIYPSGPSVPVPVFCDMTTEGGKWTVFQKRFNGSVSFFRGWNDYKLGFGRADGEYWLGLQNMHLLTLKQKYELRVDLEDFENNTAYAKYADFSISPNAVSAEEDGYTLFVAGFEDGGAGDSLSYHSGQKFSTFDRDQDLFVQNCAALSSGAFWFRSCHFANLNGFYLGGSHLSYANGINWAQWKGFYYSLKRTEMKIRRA
# UniProt P42679: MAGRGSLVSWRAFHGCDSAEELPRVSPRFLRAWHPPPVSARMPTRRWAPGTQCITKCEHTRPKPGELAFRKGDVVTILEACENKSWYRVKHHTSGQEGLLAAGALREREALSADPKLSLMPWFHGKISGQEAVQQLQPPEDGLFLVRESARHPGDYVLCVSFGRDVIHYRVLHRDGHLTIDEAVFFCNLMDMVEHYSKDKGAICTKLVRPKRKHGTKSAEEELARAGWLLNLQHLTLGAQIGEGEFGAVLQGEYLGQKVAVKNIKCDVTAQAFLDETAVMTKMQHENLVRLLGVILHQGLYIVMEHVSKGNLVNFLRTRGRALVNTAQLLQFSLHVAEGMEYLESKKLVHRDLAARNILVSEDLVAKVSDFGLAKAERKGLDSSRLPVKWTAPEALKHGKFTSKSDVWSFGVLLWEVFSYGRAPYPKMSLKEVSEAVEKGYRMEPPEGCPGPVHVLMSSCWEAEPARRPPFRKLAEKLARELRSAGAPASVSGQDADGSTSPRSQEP
# UniProt A6NJ78: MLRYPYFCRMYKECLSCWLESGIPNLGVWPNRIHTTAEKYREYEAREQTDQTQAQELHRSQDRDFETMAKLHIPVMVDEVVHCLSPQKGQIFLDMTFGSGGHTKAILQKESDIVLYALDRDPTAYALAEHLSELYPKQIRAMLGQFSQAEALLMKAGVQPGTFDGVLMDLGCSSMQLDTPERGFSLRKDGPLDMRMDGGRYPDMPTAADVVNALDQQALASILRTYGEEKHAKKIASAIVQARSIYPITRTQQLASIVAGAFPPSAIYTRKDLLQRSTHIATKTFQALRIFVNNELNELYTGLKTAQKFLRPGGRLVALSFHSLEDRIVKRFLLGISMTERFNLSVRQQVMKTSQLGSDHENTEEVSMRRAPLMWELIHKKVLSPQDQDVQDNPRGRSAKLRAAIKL
# UniProt P55082: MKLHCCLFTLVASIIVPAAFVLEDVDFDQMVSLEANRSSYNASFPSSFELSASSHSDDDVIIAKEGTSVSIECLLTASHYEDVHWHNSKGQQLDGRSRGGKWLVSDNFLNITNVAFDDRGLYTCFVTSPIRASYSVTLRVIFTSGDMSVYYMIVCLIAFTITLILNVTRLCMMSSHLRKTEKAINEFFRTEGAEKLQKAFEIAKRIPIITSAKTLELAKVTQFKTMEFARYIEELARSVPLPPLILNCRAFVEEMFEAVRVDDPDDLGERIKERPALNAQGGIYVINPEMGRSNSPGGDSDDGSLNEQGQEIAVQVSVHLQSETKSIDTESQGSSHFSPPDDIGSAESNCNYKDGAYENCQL
# UniProt Q9P086: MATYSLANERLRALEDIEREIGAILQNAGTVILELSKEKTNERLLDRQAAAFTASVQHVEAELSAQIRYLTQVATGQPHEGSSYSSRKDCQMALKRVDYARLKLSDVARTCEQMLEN
# UniProt P08582: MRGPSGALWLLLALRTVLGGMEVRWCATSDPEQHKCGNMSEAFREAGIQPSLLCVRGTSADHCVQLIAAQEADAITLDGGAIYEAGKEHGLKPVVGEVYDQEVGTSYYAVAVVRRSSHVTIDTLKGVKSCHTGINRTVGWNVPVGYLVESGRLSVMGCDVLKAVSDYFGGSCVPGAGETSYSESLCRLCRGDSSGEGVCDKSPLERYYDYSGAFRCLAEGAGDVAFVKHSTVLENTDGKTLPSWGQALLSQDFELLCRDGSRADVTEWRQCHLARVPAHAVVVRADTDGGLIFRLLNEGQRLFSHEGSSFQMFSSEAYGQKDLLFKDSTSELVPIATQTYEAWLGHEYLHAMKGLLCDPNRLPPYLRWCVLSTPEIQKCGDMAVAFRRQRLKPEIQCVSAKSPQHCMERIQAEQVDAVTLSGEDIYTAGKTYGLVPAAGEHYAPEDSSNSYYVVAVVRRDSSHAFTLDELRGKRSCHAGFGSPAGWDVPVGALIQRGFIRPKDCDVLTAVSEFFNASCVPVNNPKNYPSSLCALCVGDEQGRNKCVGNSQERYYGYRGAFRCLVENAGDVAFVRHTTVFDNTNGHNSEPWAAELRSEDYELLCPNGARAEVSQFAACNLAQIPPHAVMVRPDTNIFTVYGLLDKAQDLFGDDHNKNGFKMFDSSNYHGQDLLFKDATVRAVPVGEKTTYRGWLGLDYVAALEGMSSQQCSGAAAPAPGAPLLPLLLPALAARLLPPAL
# UniProt A4D2B0: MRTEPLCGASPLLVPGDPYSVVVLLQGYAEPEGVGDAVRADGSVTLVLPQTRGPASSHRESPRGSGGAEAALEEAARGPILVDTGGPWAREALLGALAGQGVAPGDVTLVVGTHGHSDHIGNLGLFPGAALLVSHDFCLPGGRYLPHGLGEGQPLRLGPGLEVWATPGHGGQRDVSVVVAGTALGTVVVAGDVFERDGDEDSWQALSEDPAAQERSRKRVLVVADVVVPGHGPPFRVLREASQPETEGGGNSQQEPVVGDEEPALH
# UniProt Q00987, whole entry, looked up: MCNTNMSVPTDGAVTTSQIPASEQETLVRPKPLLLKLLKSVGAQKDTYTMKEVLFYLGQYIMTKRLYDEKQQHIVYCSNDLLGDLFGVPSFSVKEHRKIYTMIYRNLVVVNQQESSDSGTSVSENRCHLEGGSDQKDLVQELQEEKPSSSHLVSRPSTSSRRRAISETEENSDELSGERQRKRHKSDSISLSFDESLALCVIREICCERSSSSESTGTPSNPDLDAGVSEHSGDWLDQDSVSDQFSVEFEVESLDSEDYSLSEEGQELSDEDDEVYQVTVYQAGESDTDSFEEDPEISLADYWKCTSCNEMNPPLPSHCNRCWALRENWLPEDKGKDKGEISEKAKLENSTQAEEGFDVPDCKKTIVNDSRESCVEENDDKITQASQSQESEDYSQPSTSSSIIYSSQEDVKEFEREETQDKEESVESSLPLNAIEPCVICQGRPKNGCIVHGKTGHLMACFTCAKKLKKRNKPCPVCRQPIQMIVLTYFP
# UniProt Q6NUT3: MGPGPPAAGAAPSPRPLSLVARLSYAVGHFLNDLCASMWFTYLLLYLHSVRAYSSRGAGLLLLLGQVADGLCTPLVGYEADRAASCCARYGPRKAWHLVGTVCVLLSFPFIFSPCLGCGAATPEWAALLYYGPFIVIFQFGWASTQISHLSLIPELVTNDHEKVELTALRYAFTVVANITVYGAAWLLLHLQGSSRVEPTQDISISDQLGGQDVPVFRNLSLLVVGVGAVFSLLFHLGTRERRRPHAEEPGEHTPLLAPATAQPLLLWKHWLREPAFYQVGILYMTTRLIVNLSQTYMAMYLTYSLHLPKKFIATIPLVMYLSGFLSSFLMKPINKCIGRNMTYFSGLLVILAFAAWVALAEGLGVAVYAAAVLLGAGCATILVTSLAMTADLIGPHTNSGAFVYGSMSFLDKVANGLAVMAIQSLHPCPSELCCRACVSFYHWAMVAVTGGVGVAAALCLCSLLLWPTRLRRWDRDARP
# UniProt Q8IX19: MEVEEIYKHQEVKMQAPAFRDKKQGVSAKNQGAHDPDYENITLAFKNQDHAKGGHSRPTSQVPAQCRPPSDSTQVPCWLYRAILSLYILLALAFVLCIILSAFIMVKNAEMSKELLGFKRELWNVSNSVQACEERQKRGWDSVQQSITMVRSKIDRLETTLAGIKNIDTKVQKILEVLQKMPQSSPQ
# UniProt Q9H204: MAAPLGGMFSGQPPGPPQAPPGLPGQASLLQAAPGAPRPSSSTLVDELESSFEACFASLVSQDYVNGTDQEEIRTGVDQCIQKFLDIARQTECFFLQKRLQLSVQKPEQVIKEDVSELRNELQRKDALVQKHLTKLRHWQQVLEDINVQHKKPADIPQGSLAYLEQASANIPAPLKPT
# The other results are listed elsewhere or left out.
# Experiments:
# Assay in all cases: log2 fold change, soluble protein after heating vs DMSO (PISA); higher = thermal stabilisation; K562 lysate, 10 uM; active = over 0.2 and 3.5 SD of the protein, either way, in both replicates (recomputed)
# lapatinib = compound: CS(=O)(=O)CCNCc1ccc(-c2ccc3ncnc(Nc4ccc(OCc5cccc(F)c5)c(Cl)c4)c3c2)o1 [lapatinib]
# Method in brief: (§1)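 Dounce homogenisation of K562 pellets in PBS pH 7.4 with 1 mM MgCl2 produced a crude extract, used at 1 mg/mL protein. Exposure to 10 μM compound lasted 30 min, and aliquots were then heated for 3 min across 48°C-58°C, pooled and brought to 0.5% NP-40 at 4°C. The supernatant after 21,000xg for 90 min was quantified by TMTpro 16plex LC-MS/MS with channel sums equalised. Duplicate values are given as log-two fold change in thermal stability relative to solvent controls.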
# crizotinib = compound: C[C@@H](Oc1cc(-c2cnn(C3CCNCC3)c2)cnc1N)c1c(Cl)ccc(F)c1Cl [crizotinib]
# Method in brief: as §1
# [1] = compound: C[C@H](C1=CC=C(C=C1)C(=O)NC2=C3C=CNC3=NC=C2)N
# Method in brief: as §1
# duvelisib = compound: C[C@H](Nc1ncnc2nc[nH]c12)c1cc2cccc(Cl)c2c(=O)n1-c1ccccc1 [duvelisib]
# Method in brief: as §1
# gandotinib = compound: Cc1cc(Nc2cc(CN3CCOCC3)c3nc(C)c(Cc4ccc(Cl)cc4F)n3n2)n[nH]1 [gandotinib]
# Method in brief: as §1
# tozasertib = compound: Cc1cc(Nc2cc(N3CCN(C)CC3)nc(Sc3ccc(NC(=O)C4CC4)cc3)n2)n[nH]1 [tozasertib]
# Method in brief: as §1
# doramapimod = compound: Cc1ccc(-n2nc(C(C)(C)C)cc2NC(=O)Nc2ccc(OCCN3CCOCC3)c3ccccc23)cc1 [doramapimod]
# Method in brief: as §1
# [2] = compound: Cc1cccc(CC(=O)N2CCc3c2ccc(-c2cn(C)c4ncnc(N)c24)c3F)n1
# Method in brief: as §1
# pictilisib = compound: CS(=O)(=O)N1CCN(Cc2cc3nc(-c4cccc5[nH]ncc45)nc(N4CCOCC4)c3s2)CC1 [pictilisib]
# Method in brief: as §1
# bafetinib = compound: Cc1ccc(NC(=O)c2ccc(CN3CC[C@H](N(C)C)C3)c(C(F)(F)F)c2)cc1Nc1nccc(-c2cncnc2)n1 [bafetinib]
# Method in brief: as §1
Target,log2 fold change (lapatinib),log2 fold change (crizotinib),log2 fold change [1],log2 fold change (duvelisib),log2 fold change (gandotinib),log2 fold change (tozasertib),log2 fold change (doramapimod),log2 fold change [2],log2 fold change (pictilisib),log2 fold change (bafetinib)
MEF2C isoform 2 (UniProt Q06413),inactive: -0.09,inactive: -0.01,inactive: 0.158,inactive: -0.123,inactive: -0.065,inactive: 0.087,inactive: 0.07,inactive: -0.021,,
MDK (UniProt P21741),inactive: -0.015,inactive: 0.231,inactive: 0.245,inactive: 0.036,inactive: -0.179,inactive: 0.043,inactive: -0.108,inactive: -0.218,,
MDM1 (UniProt Q8TC05),inactive: -0.004,,active: -1.42,inactive: 0.05,inactive: 0.336,inactive: 0.083,,active: 0.554,,
MEN1 (UniProt O00255),inactive: -0.226,inactive: -0.051,,inactive: -0.009,,inactive: 0.008,inactive: 0.051,,,
MELK (UniProt Q14680),inactive: -0.031,inactive: 0.044,inactive: 0.01,inactive: -0.028,inactive: -0.031,inactive: -0.209,inactive: 0.208,inactive: 0.039,,
"MCTS2P, A0A3B3IRV3",inactive: 0.203,inactive: 0.027,,inactive: -0.132,,,inactive: -0.011,,,
MCRS1 isoform 2 (UniProt Q96EZ8),,,inactive: -0.009,,inactive: -0.083,,,inactive: -0.131,inactive: -0.079,inactive: -0.106
MEIOB isoform 2 (UniProt Q8N635),,,inactive: 0.112,inactive: 0.19,inactive: -0.045,,,inactive: 0.012,,
MBNL2 (UniProt Q5VZF2),inactive: -0.033,inactive: 0.024,inactive: -0.076,,inactive: 0.044,inactive: -0.098,inactive: 0.045,inactive: -0.238,,
MEGF8 (UniProt Q7Z7M0),,inactive: 0.113,inactive: -0.077,inactive: -0.167,inactive: -0.101,inactive: 0.02,inactive: -0.028,inactive: -0.011,inactive: -0.015,inactive: 0.068
MBD6 (UniProt Q96DN6),,,,inactive: 0.065,,,,,,
MED9 (UniProt Q9NWA0),inactive: -0.103,inactive: 0.188,inactive: 0.049,inactive: 0.066,inactive: -0.092,,inactive: -0.093,inactive: -0.113,,
MFSD14B (UniProt Q5SR56),,inactive: -0.201,inactive: 0.004,,inactive: 0.016,inactive: -0.01,inactive: 0.016,inactive: 0.052,,
MEGF9 (UniProt Q9H1U4),,,inactive: 0.181,inactive: -0.094,inactive: -0.051,inactive: -0.235,,inactive: -0.093,inactive: 0.04,inactive: 0.083
MEX3C (UniProt Q5U5Q3),,inactive: -0.056,,,,,inactive: -0.008,,,
MFAP4 isoform 2 (UniProt P55083),,,,,,inactive: 0.066,,,,
MATK isoform 2 (UniProt P42679),inactive: 0.025,,inactive: -0.224,,inactive: 0.056,,,inactive: 0.07,,
METTL15 (UniProt A6NJ78),,inactive: -0.007,,,,,inactive: -0.088,,,
METTL23 (UniProt Q86XA0),inactive: -0.188,,,,,inactive: -0.156,,,,

Target,log2 fold change (lapatinib),log2 fold change (crizotinib),log2 fold change [1],log2 fold change (duvelisib),log2 fold change (gandotinib),log2 fold change (tozasertib),log2 fold change (doramapimod),log2 fold change [2],log2 fold change (pictilisib),log2 fold change (bafetinib)
METTL17 isoform 3 (UniProt Q9H7H0),,,inactive: 0.096,,inactive: 0.13,inactive: 0.263,,inactive: -0.007,,
MFSD6 (UniProt Q6ZSS7),,,inactive: -0.235,inactive: 0.14,inactive: 0.032,inactive: 0.2,,inactive: -0.263,inactive: -0.067,inactive: 0.031
MFAP3 (UniProt P55082),,inactive: 0.079,inactive: -0.005,inactive: 0.171,inactive: 0.087,,inactive: 0.114,inactive: 0.081,,
MED11 (UniProt Q9P086),,inactive: -0.019,,inactive: -0.256,,,inactive: 0.008,,inactive: -0.06,inactive: -0.203
METAP2 isoform 2 (UniProt P50579),,,inactive: -0.091,,inactive: 0.099,inactive: 0.049,,inactive: 0.055,,
MBD4 (UniProt O95243),inactive: 0.207,inactive: 0.027,inactive: 0.074,inactive: -0.106,inactive: 0.04,inactive: 0.102,inactive: 0.018,inactive: 0.134,,
MDM4 (UniProt O15151),,inactive: -0.004,inactive: 0.013,inactive: 0.107,inactive: 0.051,inactive: 0.074,inactive: 0.013,inactive: 0.004,,
MELTF (UniProt P08582),,inactive: -0.015,inactive: -0.096,,inactive: -0.083,inactive: -0.118,inactive: 0.154,inactive: -0.079,inactive: -0.037,inactive: 0.052
MBLAC1 (UniProt A4D2B0),inactive: 0.013,,inactive: 0.027,,inactive: 0.118,inactive: 0.122,,inactive: -0.021,,
MCPH1 (UniProt Q8NEM0),,inactive: -0.047,inactive: 0.084,,inactive: -0.086,,inactive: -0.029,inactive: -0.15,,
MEX3A (UniProt A1L020),,,,inactive: 0.196,,,,,,
MDM2 isoform 11 (UniProt Q00987),,inactive: 0.014,inactive: -0.004,,inactive: 0.044,,inactive: 0.009,inactive: -0.158,inactive: -0.003,inactive: 0.054
MBTPS2 (UniProt O43462),,inactive: 0.03,,,,inactive: -0.101,inactive: 0.033,,,
MFSD12 isoform 3 (UniProt Q6NUT3),inactive: 0.033,inactive: -0.023,inactive: -0.238,inactive: 0.092,inactive: 0.076,,inactive: 0.053,inactive: 0.352,,
MCEMP1 (UniProt Q8IX19),inactive: -0.185,inactive: 0.166,,inactive: -0.038,,,inactive: 0.052,,,
MED28 (UniProt Q9H204),inactive: 0.132,inactive: 0.021,inactive: -0.039,inactive: -0.034,active: 0.394,,inactive: -0.012,inactive: -0.038,,
MFSD9 (UniProt Q8NBP5),,,,inactive: -0.006,,,,,,
MBTD1 (UniProt Q05BQ5),,inactive: -0.131,,,,,inactive: 0.128,,,
MED29 (UniProt Q9NX70),,inactive: 0.012,inactive: 0.188,inactive: 0.414,inactive: -0.067,,inactive: -0.075,inactive: -0.109,,

# As entered above:
# Entry of MFSD9 (UniProt Q8NBP5) under log2 fold change (duvelisib): inactive: -0.006
# Entry of MCEMP1 (UniProt Q8IX19) under log2 fold change (lapatinib): inactive: -0.185
